Data taken from the supplement of paper PMC9233669.
Variants at the background level are over-represented here.

What was measured:
biotinyl-Phe-oxazolone = assay: self-aminoacylation, catalytic enhancement (BFO) (fold over background); higher = more active; k-Seq, kA / k0A0; sequences stand for … in GGGAAUGGAUCCACAUCUACGAAUUC…UUCACUGCAGACUUGACGAAGCUG
Method in brief: (§1)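 Mutagenized RNA pools (0.43 μM; 21-nt variable region) were treated with 2–1250 μM of each biotinyl-aminoacyl-oxazolone. Conditions were 50 μL HEPES/NaCl/KCl/MgCl2/CaCl2 buffer, 5% acetonitrile, pH 6.9–7.0, room temperature, 90 minutes. Catalytic enhancement, the median kA relative to the uncatalyzed rate, was derived from streptavidin capture, qPCR and Illumina sequencing.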

biotinyl-Leu-oxazolone = assay: self-aminoacylation, catalytic enhancement (BLO) (fold over background); higher = more active; k-Seq, kA / k0A0; sequences stand for … in GGGAAUGGAUCCACAUCUACGAAUUC…UUCACUGCAGACUUGACGAAGCUG
Method in brief: as §1

biotinyl-Met-oxazolone = assay: self-aminoacylation, catalytic enhancement (BMO) (fold over background); higher = more active; k-Seq, kA / k0A0; sequences stand for … in GGGAAUGGAUCCACAUCUACGAAUUC…UUCACUGCAGACUUGACGAAGCUG
Method in brief: as §1

biotinyl-Val-oxazolone = assay: self-aminoacylation, catalytic enhancement (BVO) (fold over background); higher = more active; k-Seq, kA / k0A0; sequences stand for … in GGGAAUGGAUCCACAUCUACGAAUUC…UUCACUGCAGACUUGACGAAGCUG
Method in brief: as §1

biotinyl-Ile-oxazolone = assay: self-aminoacylation, catalytic enhancement (BIO) (fold over background); higher = more active; k-Seq, kA / k0A0; sequences stand for … in GGGAAUGGAUCCACAUCUACGAAUUC…UUCACUGCAGACUUGACGAAGCUG
Method in brief: as §1

biotinyl-Trp-oxazolone = assay: self-aminoacylation, catalytic enhancement (BWO) (fold over background); higher = more active; k-Seq, kA / k0A0; sequences stand for … in GGGAAUGGAUCCACAUCUACGAAUUC…UUCACUGCAGACUUGACGAAGCUG
Method in brief: as §1

Sequence	self-aminoacylation (biotinyl-Phe-oxazolone)	self-aminoacylation (biotinyl-Leu-oxazolone)	self-aminoacylation (biotinyl-Met-oxazolone)	self-aminoacylation (biotinyl-Val-oxazolone)	self-aminoacylation (biotinyl-Ile-oxazolone)	self-aminoacylation (biotinyl-Trp-oxazolone)
CUACUGCAAACAAUAGGUCUG [Fam1A.1 aminoacylation ribozyme variant]	1.49	0.74	0.892	0.852	1.13	0.743
CUACUGCAAACAAUCGGUCGG [Fam1A.1 aminoacylation ribozyme variant]	0.692	0.919	0.978	1.04	0.948	0.862
CUACUUAAAACAAUCGGUCUC [Fam1A.1 aminoacylation ribozyme variant]	0.577	0.617	0.612	0.777	0.669	0.691
CUACUUAAAACAAUCUGUCUG [Fam1A.1 aminoacylation ribozyme variant]	0.721	0.667	0.732	0.853	0.77	0.515
CUACUUAAAACAAUUGGUCUG [Fam1A.1 aminoacylation ribozyme variant]	0.548	1.01	1.15	0.954	1.1	0.964
CUACUUAAAAUAAUCGGUCUG [Fam1A.1 aminoacylation ribozyme variant]	0.751	0.769	0.705	0.865	0.891	0.696
CUACUUAAAGCAAUCGGUCUG [Fam1A.1 aminoacylation ribozyme variant]	0.475	0.719	0.685	0.795	0.731	0.45
CUACUUCAAAAAACCGGUCUG [Fam1A.1 aminoacylation ribozyme variant]	0.752	0.58	0.781	0.802	0.926	0.764
CUACUUCAAAAAAUCGAUCUG [Fam1A.1 aminoacylation ribozyme variant]	1.46	0.6	0.601	0.585	0.663	0.604
CUACUUCAAAACAUCGGUCUG [Fam1A.1 aminoacylation ribozyme variant]	0.686	0.818	0.897	0.887	0.94	1.07
CUACUUCAAACAAACGGUGUG [Fam1A.1 aminoacylation ribozyme variant]	0.82	1.16	1.14	1.08	1.01	1.01
CUACUUCAAACAACCGGUGUG [Fam1A.1 aminoacylation ribozyme variant]	0.934	1.5	1.49	0.961	1.03	0.956
CUACUUCAAACAAGCGGUCUC [Fam1A.1 aminoacylation ribozyme variant]	1.19	0.825	0.837	0.842	0.815	0.752
CUACUUCAAACAAUAGGUAUG [Fam1A.1 aminoacylation ribozyme variant]	1.05	0.601	0.805	0.659	0.65	0.43
CUACUUCAAACAAUCAUUCUG [Fam1A.1 aminoacylation ribozyme variant]	3.72	0.513	0.488	0.577	0.616	1.55
CUACUUCAAACAAUCCGCCUG [Fam1A.1 aminoacylation ribozyme variant]	1.81	1.07	1.24	1.07	1.37	1.59
CUACUUCAAACAAUCCGUCUU [Fam1A.1 aminoacylation ribozyme variant]	0.785	0.802	0.764	0.862	0.814	0.691
CUACUUCAAACAAUCGCUUUG [Fam1A.1 aminoacylation ribozyme variant]	0.838	0.853	0.808	1.03	1.11	0.979
CUACUUCAAACAAUCGGCCUU [Fam1A.1 aminoacylation ribozyme variant]	2.48	1.6	1.43	1.61	1.64	1.63
CUACUUCAAACAAUCGGGCGG [Fam1A.1 aminoacylation ribozyme variant]	1.71	1.31	1.53	1.4	1.63	1.79
CUACUUCAAACAAUCGUUAUG [Fam1A.1 aminoacylation ribozyme variant]	0.899	0.523	0.48	0.627	0.683	0.59

Sequence	self-aminoacylation (biotinyl-Phe-oxazolone)	self-aminoacylation (biotinyl-Leu-oxazolone)	self-aminoacylation (biotinyl-Met-oxazolone)	self-aminoacylation (biotinyl-Val-oxazolone)	self-aminoacylation (biotinyl-Ile-oxazolone)	self-aminoacylation (biotinyl-Trp-oxazolone)
CUACUUCAAACAAUCUGACUG [Fam1A.1 aminoacylation ribozyme variant]	1.1	0.835	0.786	0.746	0.902	0.58
CUACUUCAAACAAUCUGUCGG [Fam1A.1 aminoacylation ribozyme variant]	0.542	0.965	0.717	0.812	0.875	0.504
CUACUUCAAACAAUCUGUCUC [Fam1A.1 aminoacylation ribozyme variant]	1.64	0.638	0.708	0.751	0.659	0.982
CUACUUCAAACAAUCUGUCUG [Fam1A.1 aminoacylation ribozyme variant]	3.23	0.585	0.579	0.717	0.699	1.45
CUACUUCAAACAAUCUGUGUG [Fam1A.1 aminoacylation ribozyme variant]	1.38	1.48	1.28	1.04	1.25	0.98
CUACUUCAAACAAUGGGUUUG [Fam1A.1 aminoacylation ribozyme variant]	0.542	0.88	0.963	0.871	0.96	0.957
CUACUUCAAACAAUUGGUCAG [Fam1A.1 aminoacylation ribozyme variant]	0.976	0.759	0.701	0.858	0.824	0.783
CUACUUCAAACAAUUGGUCCG [Fam1A.1 aminoacylation ribozyme variant]	0.524	0.872	0.854	0.728	0.958	1.01
CUACUUCAAACAAUUGGUCUG [Fam1A.1 aminoacylation ribozyme variant]	1.55	0.76	0.77	0.816	0.866	1.06
CUACUUCAAACACUGGGUCUG [Fam1A.1 aminoacylation ribozyme variant]	0.827	1.06	0.785	1.05	0.862	0.566
CUACUUCAAACAGUCGGUCGG [Fam1A.1 aminoacylation ribozyme variant]	0.776	1.16	1.15	0.872	1.12	1.02
CUACUUCAAACAGUCGGUCUG [Fam1A.1 aminoacylation ribozyme variant]	0.746	0.805	0.794	0.789	0.787	0.603
CUACUUCAAACCAUCUGUCUG [Fam1A.1 aminoacylation ribozyme variant]	0.823	0.565	0.558	0.727	0.684	0.541
CUACUUCAAACGACCGGUCUG [Fam1A.1 aminoacylation ribozyme variant]	0.832	0.621	0.698	0.74	0.601	0.229
CUACUUCAAACGAUCGGUUUG [Fam1A.1 aminoacylation ribozyme variant]	0.963	0.845	0.741	1	0.856	1.24
CUACUUCAAACGAUCUGUCUG [Fam1A.1 aminoacylation ribozyme variant]	0.904	0.564	0.769	0.779	0.701	0.578
CUACUUCAAACUCUCGGUCUG [Fam1A.1 aminoacylation ribozyme variant]	0.697	1.02	1.01	1.29	1.21	1.14
CUACUUCAAACUGUCGGUCUG [Fam1A.1 aminoacylation ribozyme variant]	0.522	0.986	1.04	1.09	1.01	0.814
CUACUUCAAAGAAUAGGUCUG [Fam1A.1 aminoacylation ribozyme variant]	0.944	0.699	0.784	0.746	0.816	0.59
CUACUUCAAAGAAUCGGGCUG [Fam1A.1 aminoacylation ribozyme variant]	0.928	1.24	1.02	1.17	1.34	1.76
CUACUUCAAAGAAUCGUUCUG [Fam1A.1 aminoacylation ribozyme variant]	0.728	0.579	0.694	0.648	0.632	0.482
